From PubChem BioAssay AID248 (DTP/NCI, 2004)
The list does not hold the whole screen: it is rich in T/C values a quarter to a half above the control, in often repeated tests (any T/C) and in doses without a T/C. Other doses and runs of a compound stand elsewhere. T/C is the treated group as % of the vehicle group. Some entries give survivors of the animals treated and no T/C: the source files T/C as zero there, which appears to mark a toxic dose or a test without result, not a measured value. Some doses without a T/C left all or most animals alive at the check, yet need not have been tolerated: the source hardly ever lists a survival T/C far under the control, and the zero likely stands for such cases as well. Survivors were counted at the toxicity check, usually on the fifth day, unless a day is given; later deaths do not show. Schedules are NCI's codes, read here as Q, the interval in days (D) or hours (H), X, the number of doses. Some molecules as drawn cover several salts, stereoisomers or complexes of the source; a dose is that of the sample tested. Some doses were run more than once; the results are listed from low to high. Some schedule codes hold Z or #, which are not explained here. Additions like (4×) say how often a value occurs here. For survival time, the PubChem record calls one and a half times the control and up active, and a quarter to a half above the control has no call in these data; cut-offs in other NCI protocols can differ. Some T/C values carry the count of animals alive at the toxicity check (mostly the fifth day); where none is given, no animal had died by that day.

Test system: L1210 leukemia ip in BDF1 mice, survival T/C
Experiment: NCI In Vivo Anticancer Drug Screen. Data for tumor model L1210 Leukemia (intraperitoneal) in B6D2F1 (BDF1) mice
Conditions: T/C endpoint: mean survival time, higher T/C = longer survival
[1] = dose: 200.0 mg/kg/injection, schedule: Q01DX Z (ip), vehicle: carboxymethylcellulose (CMC)
[2] = dose: 400.0 mg/kg/injection, schedule: Q01DX001 (ip), vehicle: Klucel (hydroxypropylcellulose) (HPC)
[3] = dose: 100.0 mg/kg/injection, schedule: Q04DX002 (ip), vehicle: saline with Tween-80
[4] = dose: 200.0 mg/kg/injection, schedule: Q01DX005 (ip), vehicle: saline
[5] = dose: 400.0 mg/kg/injection, schedule: Q01DX009 (ip), vehicle: saline with Tween-80
[6] = dose: 400.0 mg/kg/injection, schedule: Q01DX001 (ip), vehicle: carboxymethylcellulose (CMC)

SMILES: CN(N=O)C(=O)NCCCl
- T/C (dose: 50.0 mg/kg/injection, schedule: Q01DX001 (ip), vehicle: Klucel (hydroxypropylcellulose) (HPC), evaluated on day 5): 102 and 103 % of control
- T/C (dose: 50.0 mg/kg/injection, schedule: Q01DX001 (ip), vehicle: Klucel (hydroxypropylcellulose) (HPC), evaluated on day 45): 102 and 103 % of control
- T/C (dose: 50.0 mg/kg/injection, schedule: Q01DX Z (ip), vehicle: carboxymethylcellulose (CMC)): 125 % of control
- T/C (dose: 100.0 mg/kg/injection, schedule: Q01DX001 (ip), vehicle: Klucel (hydroxypropylcellulose) (HPC), evaluated on day 5): 103 and 106 % of control
- T/C (dose: 100.0 mg/kg/injection, schedule: Q01DX001 (ip), vehicle: Klucel (hydroxypropylcellulose) (HPC), evaluated on day 45): 103 and 106 % of control
- T/C (dose: 100.0 mg/kg/injection, schedule: Q01DX Z (ip), vehicle: carboxymethylcellulose (CMC)): 135 % of control
- T/C (dose: 150.0 mg/kg/injection, schedule: Q01DX Z (ip), vehicle: carboxymethylcellulose (CMC)): 146 % of control
- T/C [1]: 141 % of control
- survivor count [2]: 2 of 9

SMILES: Nc1[nH]c(=O)ncc1-c1ccccc1Cl
- T/C [3]: 93, 97, 107 % of control
- survivor count [3]: 0 of 3
- survivor count (dose: 200.0 mg/kg/injection, schedule: Q01DX001 (ip), vehicle: saline with Tween-80): 2 of 6
- survivor count (dose: 200.0 mg/kg/injection, schedule: Q04DX002 (ip), vehicle: saline with Tween-80): 0 of 3 and 0 of 6
- survivor count (dose: 400.0 mg/kg/injection, schedule: Q04DX002 (ip), vehicle: saline with Tween-80): 0 of 3 and 0 of 6

SMILES: COc1ccc2c(c1OC)C1(CCN(C)C)CC(=O)CCC1C=C2 (stereo unspecified)
- survivor count (dose: 50.0 mg/kg/injection, schedule: Q01DX009 (ip), vehicle: Klucel (hydroxypropylcellulose) (HPC)): 6 of 6
- survivor count (dose: 100.0 mg/kg/injection, schedule: Q01DX009 (ip), vehicle: Klucel (hydroxypropylcellulose) (HPC)): 6 of 6
- survivor count (dose: 200.0 mg/kg/injection, schedule: Q04DX003 (ip), vehicle: Klucel (hydroxypropylcellulose) (HPC)): 0 of 6
- survivor count (dose: 400.0 mg/kg/injection, schedule: Q04DX003 (ip), vehicle: Klucel (hydroxypropylcellulose) (HPC)): 0 of 6

SMILES: Cc1ccc(Nc2ccc(Nc3ccc(C)cc3)c3c2C(=O)c2c(O)ccc(O)c2C3=O)cc1
- survivor count (dose: 100.0 mg/kg/injection, schedule: Q01DX001 (ip), vehicle: Klucel (hydroxypropylcellulose) (HPC)): 3 of 3

SMILES: CN(C)C(C)(C)CNc1ccc(C(=O)O)cc1
- survivor count (dose: 50.0 mg/kg/injection, schedule: Q01DX009 (ip), vehicle: saline): 6 of 6
- survivor count (dose: 100.0 mg/kg/injection, schedule: Q01DX009 (ip), vehicle: saline): 5 of 6 and 6 of 6
- survivor count (dose: 200.0 mg/kg/injection, schedule: Q01DX009 (ip), vehicle: saline): 1 of 6
- survivor count (dose: 200.0 mg/kg/injection, schedule: Q04DX003 (ip), vehicle: saline): 2 of 6
- survivor count (dose: 400.0 mg/kg/injection, schedule: Q04DX003 (ip), vehicle: saline): 0 of 6 (2×)

SMILES: Nc1ccc(CC2=C(Br)CNC(=O)N2)cc1
- survivor count [2]: 0 of 6

SMILES: CN1C(=O)CN=C(c2ccc[nH]2)c2cc(Cl)ccc21 (tested in a mixture with another compound)
- survivor count (dose: 400.0 mg/kg/injection, schedule: Q01DX009 (ip), vehicle: Klucel (hydroxypropylcellulose) (HPC)): 0 of 6

SMILES: CN(C)C1C(CO)C(CO)C1(C)C (stereo unspecified)
- T/C (dose: 400.0 mg/kg/injection, schedule: Q01DX001 (ip), vehicle: saline with Tween-80): 142 % of control [2 of 3 alive]

SMILES: CN(C)c1nc2c(N)ncnc2n1C1OC(CO)C(O)C1O (stereo unspecified)
- survivor count (dose: 50.0 mg/kg/injection, schedule: Q01DX005 (ip), vehicle: saline): 3 of 6
- survivor count (dose: 100.0 mg/kg/injection, schedule: Q01DX005 (ip), vehicle: saline): 0 of 6 and 1 of 6
- survivor count [4]: 0 of 6

SMILES: CCC(C)C1(C)OC1C(=O)OC (stereo unspecified)
- survivor count [5]: 6 of 6

SMILES: CCCCCCCCCCCCNC1=C(Cl)C(=O)c2ccccc2C1=O
- survivor count (dose: 1.4 mg/kg/injection, schedule: Q01DX Z (ip), vehicle: methylcellulose (MC)): 3 of 6

SMILES: CC1(C)N=C(N)N=C(N)N1c1cccc(Cl)c1
- T/C (dose: 20.0 mg/kg/injection, schedule: Q01DX015 (ip), vehicle: saline): 145 % of control
- survivor count (dose: 80.0 mg/kg/injection, schedule: Q01DX015 (ip), vehicle: saline): 4 of 6
- survivor count (dose: 150.0 mg/kg/injection, schedule: Q01DX001 (ip), vehicle: acetone): 2 of 6
- survivor count (dose: 300.0 mg/kg/injection, schedule: Q01DX001 (ip), vehicle: acetone): 0 of 6

SMILES: CC(C)CCOP(=S)(N1CC1)N1CC1
- T/C (dose: 7.5 mg/kg/injection, schedule: Q01DX015 (ip), vehicle: carboxymethylcellulose (CMC)): 129 % of control
- T/C (dose: 15.0 mg/kg/injection, schedule: Q01DX015 (ip), vehicle: carboxymethylcellulose (CMC)): 140 % of control
- T/C (dose: 30.0 mg/kg/injection, schedule: Q01DX015 (ip), vehicle: carboxymethylcellulose (CMC)): 142 % of control
- T/C (dose: 60.0 mg/kg/injection, schedule: Q01DX015 (ip), vehicle: carboxymethylcellulose (CMC)): 134 % of control [5 of 6 alive]
- T/C (dose: 66.6 mg/kg/injection, schedule: Q01DX001 (ip), vehicle: carboxymethylcellulose (CMC)): 125 % of control
- T/C (dose: 100.0 mg/kg/injection, schedule: Q01DX001 (ip), vehicle: carboxymethylcellulose (CMC)): 139 % of control
- T/C (dose: 120.0 mg/kg/injection, schedule: Q01DX015 (ip), vehicle: carboxymethylcellulose (CMC)): 127 % of control
- T/C (dose: 150.0 mg/kg/injection, schedule: Q01DX001 (ip), vehicle: carboxymethylcellulose (CMC)): 146 % of control
- T/C (dose: 200.0 mg/kg/injection, schedule: Q01DX001 (ip), vehicle: carboxymethylcellulose (CMC)): 148 % of control
- survivor count (dose: 240.0 mg/kg/injection, schedule: Q01DX015 (ip), vehicle: carboxymethylcellulose (CMC)): 5 of 6
- survivor count [6]: 3 of 4

SMILES: Cc1nc(N)[nH]c(=O)c1CCCNS(=O)(=O)c1ccc(C(=O)O)cc1
- survivor count (dose: 100.0 mg/kg/injection, schedule: Q04DX002 (ip), vehicle: Klucel (hydroxypropylcellulose) (HPC)): 3 of 3

SMILES: O=C(NN1C(=O)CSC1=S)c1ccc([N+](=O)[O-])s1
- survivor count [4]: 0 of 4
- survivor count (dose: 400.0 mg/kg/injection, schedule: Q01DX005 (ip), vehicle: saline): 0 of 4

SMILES: Cc1ccccc1C[As](C)(=O)O
- survivor count [2]: 0 of 6

SMILES: CCOc1ccc(C(/C(Cl)=N/O)C(Cl)(Cl)Cl)cc1 (stereo unspecified)
- survivor count (dose: 100.0 mg/kg/injection, schedule: Q04DX003 (ip), vehicle: acetone): 0 of 6
- survivor count (dose: 200.0 mg/kg/injection, schedule: Q04DX003 (ip), vehicle: acetone): 0 of 6
- survivor count (dose: 400.0 mg/kg/injection, schedule: Q04DX003 (ip), vehicle: acetone): 0 of 6

SMILES: Fc1ccc(NC(=S)Nc2cc(Cl)cc(Cl)c2)cc1
- survivor count (dose: 125.0 mg/kg/injection, schedule: Q01DX Z (ip), vehicle: carboxymethylcellulose (CMC)): 3 of 6
- survivor count [1]: 3 of 6
- survivor count [6]: 0 of 4

SMILES: NCCCC1C2CCC(C2)C1CN (stereo unspecified)
- survivor count (dose: 200.0 mg/kg/injection, schedule: Q04DX002 (ip), vehicle: alcohol): 0 of 3
- survivor count (dose: 400.0 mg/kg/injection, schedule: Q04DX002 (ip), vehicle: alcohol): 0 of 3

SMILES: COC1=C2CCCCC2=[N+]2CCc3ccccc3C2C1 (stereo unspecified)
- survivor count (dose: 200.0 mg/kg/injection, schedule: Q01DX001 (ip), vehicle: Klucel (hydroxypropylcellulose) (HPC)): 3 of 6
- survivor count [2]: 0 of 6

SMILES: CCCCCCOC(CN(C)C)C(Cl)(Cl)Cl (stereo unspecified)
- survivor count [5]: 3 of 6

SMILES: Clc1ccc(-c2cc(=[N+]3CCCCC3)ss2)cc1
- survivor count (dose: 50.0 mg/kg/injection, schedule: Q01DX009 (ip), vehicle: saline with Tween-80): 0 of 6
- survivor count (dose: 200.0 mg/kg/injection, schedule: Q01DX009 (ip), vehicle: saline with Tween-80): 2 of 6
- survivor count (dose: 300.0 mg/kg/injection, schedule: Q01DX009 (ip), vehicle: saline with Tween-80): 0 of 6
- survivor count (dose: 400.0 mg/kg/injection, schedule: Q04DX003 (ip), vehicle: saline with Tween-80): 0 of 6
